Data set [1] has as its target T1, Bcl6 (Homo sapiens (Human), UniProt P41182). The data set is described as follows: Bcl-6 protein degradation experiment in OCI-LY1 cells. The conditions noted are these: read-out: Bcl6 DC50, 24 hours.
Data set [2] can be described thus: Pharmacokinetic test in mice. The conditions noted are these: mice plasma, i.g. 5 mg/kg.
Data set [3] addresses T1, Bcl6. The experiment in a line: Bcl-6 protein degradation experiment in Farage cells. The class given is cell-based. The note with it: read-out: Bcl6 DC50, 24 hours.
Data set [4] can be described thus: Pharmacokinetic test in rats. The conditions noted are these: i.g. 5 mg/kg; for F: rats.
For data set [5], the target named is hERG potassium ion channel (Homo sapiens (Human), UniProt Q12809). The data set is described as follows: Test for hERG potassium ion channel (manual patch-clamp, CHO cells). The conditions noted are these: read-out: IC50 of inhibitory effects on hERG potassium channel current; CHO cells stably expressing hERG, whole cell patch-clamp.

By UniProt entry, the sequences of proteins in these tests, tags left out.
UniProt Q12809, whole entry: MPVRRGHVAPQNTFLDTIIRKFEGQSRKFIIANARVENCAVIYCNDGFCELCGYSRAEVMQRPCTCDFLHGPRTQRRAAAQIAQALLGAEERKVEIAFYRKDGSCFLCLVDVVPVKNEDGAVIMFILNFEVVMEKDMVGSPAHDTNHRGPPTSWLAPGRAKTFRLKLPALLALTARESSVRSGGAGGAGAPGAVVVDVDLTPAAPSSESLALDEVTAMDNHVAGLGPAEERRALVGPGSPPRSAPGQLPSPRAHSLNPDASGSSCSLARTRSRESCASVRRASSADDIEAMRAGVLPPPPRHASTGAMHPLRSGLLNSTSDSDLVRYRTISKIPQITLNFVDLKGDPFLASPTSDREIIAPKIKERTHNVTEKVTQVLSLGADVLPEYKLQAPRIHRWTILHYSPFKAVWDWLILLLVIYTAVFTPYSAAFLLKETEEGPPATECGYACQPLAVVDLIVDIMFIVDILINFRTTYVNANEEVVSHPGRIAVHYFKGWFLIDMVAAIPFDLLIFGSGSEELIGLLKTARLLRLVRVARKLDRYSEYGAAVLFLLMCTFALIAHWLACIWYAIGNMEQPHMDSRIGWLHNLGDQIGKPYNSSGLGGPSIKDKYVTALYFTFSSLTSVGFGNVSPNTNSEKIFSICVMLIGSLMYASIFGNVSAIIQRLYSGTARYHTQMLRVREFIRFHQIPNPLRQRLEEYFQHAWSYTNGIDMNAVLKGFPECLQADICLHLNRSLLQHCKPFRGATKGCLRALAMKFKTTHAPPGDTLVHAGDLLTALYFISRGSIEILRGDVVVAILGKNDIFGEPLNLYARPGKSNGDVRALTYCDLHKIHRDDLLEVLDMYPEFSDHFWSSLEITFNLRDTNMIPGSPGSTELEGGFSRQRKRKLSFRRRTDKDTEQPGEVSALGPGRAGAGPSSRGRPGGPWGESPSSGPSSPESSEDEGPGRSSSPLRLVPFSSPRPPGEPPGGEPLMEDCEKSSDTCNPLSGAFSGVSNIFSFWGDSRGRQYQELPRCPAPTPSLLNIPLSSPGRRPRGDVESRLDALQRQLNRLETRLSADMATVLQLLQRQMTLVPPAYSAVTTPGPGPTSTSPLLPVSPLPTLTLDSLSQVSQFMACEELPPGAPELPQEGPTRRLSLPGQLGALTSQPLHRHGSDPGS

The structures given here were assigned with low confidence; some may be wrong.

A word on the DC50: it is the midpoint of the concentration-degradation curve. Take `CC(=O)COc1cc2cc(Nc3nc(N4CCN(CC5CCN(c6ccc(C7CCC(=O)NC7=O)c(F)c6)CC5)CC4)ncc3Cl)ccc2n(C)c1=O` (stereo not shown): the half-maximal degradation concentration (DC50) in data set [1] was less than 100 nM. The AUC0-t in data set [2] is more than 1000 ng·h/mL.
Turning to `[2H]C([2H])([2H])NC(=O)COc1cc2cc(Nc3nc(N4CCN(CC5CCN(c6ccc(C7CCC(=O)NC7=O)cc6)CC5)CC4)ncc3Cl)ccc2n(C([2H])([2H])[2H])c1=O` (stereo not shown), in data set [3], the DC50 was less than 10 nM.
As to `CC(=O)COc1cc2cc(Nc3nc(N4CCC(N5CCN(c6ccc(NC7CCC(=O)NC7=O)cc6F)CC5)C(F)(F)C4)ncc3Cl)ccc2n(C)c1=O` (single isomer, unassigned), the DC50 in data set [3] was less than 10 nM.
What is called IC50 is the concentration needed to halve the response being measured. Regarding `CNC(=O)COc1cc2cc(Nc3nc(N4CCC(CN5CCN6c7ccc(C8CCC(=O)NC8=O)cc7CCC6C5)CC4)ncc3Cl)ccc2n(C)c1=O` (single isomer, unassigned), the AUC0-t in data set [4] (rats plasma) and in data set [2] was more than 1000 ng·h/mL in each case. In addition, the F in data set [4] was more than 50%; in data set [4] (listed as compound 35), “greater than 90%”. In addition, the DC50 in data set [3] was less than 10 nM. The concentration for half-maximal inhibition (IC50) in data set [5] is more than 30000 nM.

These data come from US20250333410A1, “COMPOUND FOR INHIBITING OR DEGRADING BCL6 AND USE THEREOF IN PHARMACEUTICS” (XIZANG HAISCO PHARMACEUTICAL CO., LTD., priority 2022, published 2025).
